The other results are listed elsewhere or left out.

A short description of this test: NTR1-driven beta-arrestin-GFP spot formation – imaging, U2OS cells, high content, primary screen (AID 493036) (AID 493036). The note with it: agonist mode, measured here: cell count, cytotoxicity flag, at 20 µM.
`CCc1nc2c(n1)c1c(non1O)c1c2no[n+]1[O-]` registered a cell count of 52 cells.

As to `O=[N+]([O-])c1cc([N+](=O)[O-])c(CCNc2ccccc2)c([N+](=O)[O-])c1`, the cell count was 45 cells.

In turn, `CCc1ccc(OP(C)(=O)Nc2cccnc2)cc1` (stereo unspecified) yielded a cell count of 68 cells.

`CP(=O)(Oc1ccccc1)N1CCOC1=O` (stereo unspecified) yielded a cell count of 40 cells.

Consider `Cc1ccc(NP(=O)(Oc2ccccc2)Oc2ccccc2)nc1`, for which the cell count is 61 cells.

`O=C(OCCCN1CCCC1)C(O)(c1ccccc1)C1CCCCC1` (stereo unspecified) showed a cell count of 58 cells.

`COc1ccccc1OP(C)(=O)Nc1c(C)n(C)n(-c2ccccc2)c1=O` (stereo unspecified) displayed a cell count of 65 cells.

The molecule `O=[N+]([O-])c1cccc2n[nH]nc12` returned a cell count of 58 cells.

Consider `CC(=O)N1C2C3N(C(C)=O)C1C1N(C(C)=O)C(C(N1C(C)=O)N3C(C)=O)N2C(C)=O`, for which the cell count stood at 35 cells.

`COc1ccc(OP(C)(=O)Nc2ccc(Br)cc2)cc1` (stereo unspecified): the cell count was determined as 75 cells.

With `COc1ccc(C2=NCC(CBr)S2)cc1` (stereo unspecified), the cell count was 73 cells.

`CCN(CC)CC(O)COC(=O)C(O)(c1ccccc1)C1CCCCC1` (stereo unspecified) showed a cell count of 83 cells.

As to `CC1CCN(C(=O)Oc2c(Cl)cc(Cl)c3cccnc23)CC1`, the cell count worked out at 41 cells.

As to `CN(C)C(=O)OCCc1n(C)cc[n+]1C`, the cell count turned out to be 77 cells.

The molecule `CN(C)C(=O)c1c([N+](=O)[O-])cc([N+](=O)[O-])cc1[N+](=O)[O-]` returned a cell count of 39 cells.

In turn, `CC(C)=N/N=C(\N)N[N+](=O)[O-]` returned a cell count of 29 cells.

Turning to `CP(=O)(Nc1ccc(Cl)cc1)Oc1ccc(F)cc1` (stereo unspecified), the cell count came to 48 cells.

`CCN(/C(=N/P(=O)(N1CCOCC1)N1CCOCC1)N1CCOCC1)c1ccc(OC)cc1` registered a cell count of 87 cells.

`C[N+]1=C2C=CC=CC=C2SC12C([N+](=O)[O-])=CC([N+](=O)[O-])=C[C-]2[N+](=O)[O-]` (stereo unspecified) had a cell count of 58 cells.

For `CC(C)(C)c1ccc(OP(C)(=O)O)cc1`, the cell count turned out to be 73 cells.

In turn, `Nc1ccc([As](=O)(O)c2ccc(N)cc2)cc1` displayed a cell count of 59 cells.

Turning to `COc1ccccc1OP(C)(=O)Nc1ccccc1Br` (stereo unspecified), the cell count came out at 69 cells.

Regarding `CP(=O)(OC12CC3CC(CC(C3)C1)C2)OC12CC3CC(CC(C3)C1)C2`, the cell count was found to be 60 cells.

`O=C(Nc1cc([As](=O)(O)O)ccc1O)c1ccccc1` returned a cell count of 85 cells.

As to `CCOC(=O)c1ccc(NP(C)(=O)Oc2ccc(Cl)cc2)cc1` (stereo unspecified), the cell count amounted to 77 cells.

As for `Nc1ccc2c(ccc3cccnc32)n1.O=[N+]([O-])c1cc([N+](=O)[O-])c(O)c([N+](=O)[O-])c1`, the cell count amounted to 67 cells.

In turn, `O=[N+]([O-])c1cccc(NC2=NCC(CBr)S2)c1` (stereo unspecified) displayed a cell count of 36 cells.

For the molecule `O=[N+]([O-])c1ncn(CCn2ncnc2[N+](=O)[O-])n1`, the cell count was determined as 38 cells.

The molecule `CC(C)(C)C(=O)NC(Sc1ccncn1)C(Cl)(Cl)Cl` (stereo unspecified) had a cell count of 50 cells.

On to `COc1ccc(OP(C)(=O)Nc2ccccc2Br)cc1` (stereo unspecified), for which the cell count turned out to be 70 cells.

`Cc1ccc(NP(=O)(Oc2ccccc2F)Oc2ccccc2F)nc1` came in with a cell count of 47 cells.

The record behind these values is PubChem BioAssay AID493036 (Sanford-Burnham Center for Chemical Genomics, 2011).
